Results from article PMC5988326.
Results are given in words; binding and its absence hold for the method and conditions named.

Target: soluble recombinant intra-melanosomal domain of human tyrosinase (residues 19-469) (human) (UniProt P14679)
Experiment: atomic force microscopy; hTyrCtr deposited on APS-modified mica, rinsed, dried, imaged in ambient air in tapping mode; particle volume and height distributions (N = 383); both purified

B1: soluble recombinant intra-melanosomal domain of human tyrosinase (residues 19-469) (domain or fragment, UniProt P14679 19-469)
chain: HFPRACVSSKNLMEKECCPPWSGDRSPCGQLSGRGSCQNILLSNAPLGPQFPFTGVDDRESWPSVFYNRTCQCSGNFMGFNCGNCKFGFWGPNCTERRLLVRRNIFDLSAPEKDKFFAYLTLAKHTISSDYVIPIGTYGQMKNGSTPMFNDINIYDLFVWMHYYVSMDALLGGSEIWRDIDFAHEAPAFLPWHRLFLLRWEQEIQKLTGDENFTIPYWDWRDAEKCDICTDEYMGGQHPTNPNLLSPASFFSSWQIVCSRLEEYNSHQSLCNGTPEGPLRRNPGNHDKSRTPRLPSSADVEFCLSLTQYESGSMDKAANFSFRNTLEGFASPLTGIADASQSSMHNALHIYMNGTMSQVQGSANDPIFLLHHAFVDSIFEQWLRRHRPLQEVYPEANAPIGHNRESYMVPFIPLYRNGDFFISSKDLGYDYSYLQDSDPDSFQDYIKSYLE
In the case of B1, the binding is reported as “no binding”.
